Results deposited as PubChem BioAssay AID1259276 (Sanger Institute, 2017).

- Test: 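Kinome-wide search for kinases colon cancer cells need, and for drug partners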 (primary screen)
- Cells: human C2BBe1 colorectal cancer cells
- Knock-down reagent: siRNA pool against human genes
- Conditions: DMSO vehicle, or one anchor drug: BYL719 at 1 µM, cetuximab at 5 µg/ml, or trametinib at 10 nM; exposure length not stated
- Measurement: 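Viability after knock-down relative to non-targeting siRNA controls, averaged across replicates, given as ratio and control-derived robust z-score, with per-drug synergy scores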
- Direction: viability robust z-score, siRNA alone and viability vs control, siRNA alone: higher = more viable cells after knock-down; synergy score with BYL719: higher = stronger combined killing with BYL719; synergy score with cetuximab: higher = stronger combined killing with cetuximab; synergy score with trametinib: higher = stronger combined killing with trametinib
- Hit rule: 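Called essential when knock-down alone gives a viability robust z-score below -3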
- Calls: active = essential (siRNA alone); inactive = no change (siRNA alone)
The deposit covers 794 reagents; shown is an unselected part. 24 of them (3%) count as active. 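Calls come only from the siRNA-alone arm; drug synergy scores do not affect them.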 Viability is capped at 1. No sequences are given here. The record does not give: the amount of reagent, the time to read-out.

viability robust z-score, siRNA alone | viability vs control, siRNA alone | synergy score with BYL719 | synergy score with cetuximab | synergy score with trametinib | call | target gene
0.472 | 1 | -0.109 | 0.0498 | -0.0667 | inactive | CKM
-2.06 | 0.84 | -0.000612 | -0.17 | -0.216 | inactive | IPPK
0.472 | 1 | 0.116 | 0.0922 | -0.0667 | inactive | DSTYK
-1.04 | 0.905 | -0.0333 | -0.106 | 0.0127 | inactive | SPEG
0.127 | 0.978 | -0.0693 | 0.105 | -0.0107 | inactive | ACO1
0.472 | 1 | 0.215 | 0.0925 | -0.0667 | inactive | CILK1
0.472 | 1 | -0.00875 | -0.0115 | -0.0667 | inactive | RIOK1
0.472 | 1 | -0.0998 | -0.0115 | -0.0667 | inactive | CDC42BPB
0.472 | 1 | 0.0868 | -0.00593 | -0.0667 | inactive | TWF2
0.472 | 1 | -0.142 | 0.0747 | -0.0667 | inactive | MYH10
0.472 | 1 | -0.142 | -0.0115 | -0.0667 | inactive | ITPKC
-1.24 | 0.892 | -0.014 | -0.118 | -0.115 | inactive | TESK1
0.472 | 1 | 0.0533 | 0.0424 | -0.0667 | inactive | HIPK2
0.472 | 1 | -0.107 | 0.00729 | 0.159 | inactive | SYNCRIP
-0.0381 | 0.968 | 0.108 | 0.182 | 0.208 | inactive | NADK
0.472 | 1 | 0.0352 | -0.0115 | -0.0667 | inactive | TRIB2
-4.49 | 0.687 | 0.177 | -0.279 | -0.112 | active | MPP3
0.472 | 1 | -0.142 | -0.0115 | -0.0667 | inactive | CKB
-1.02 | 0.906 | 0.0597 | -0.00931 | -0.154 | inactive | CDK14
0.472 | 1 | -0.142 | -0.0115 | -0.0667 | inactive | PPP2R1A
0.472 | 1 | -0.142 | -0.0115 | -0.0454 | inactive | EPHA8
-0.499 | 0.939 | -0.156 | 0.224 | 0.199 | inactive | APC
0.136 | 0.979 | -0.16 | -0.0324 | -0.0865 | inactive | FGFR4
0.472 | 1 | -0.11 | 0.059 | -0.0667 | inactive | CDK8
0.472 | 1 | 0.209 | 0.104 | -0.0575 | inactive | LTK
0.472 | 1 | 0.17 | -0.0115 | 0.00543 | inactive | ERBB3
0.472 | 1 | -0.0563 | -0.0115 | 0.0171 | inactive | EIF2AK2
0.472 | 1 | -0.128 | -0.0115 | -0.0667 | inactive | ATP23

Laid out differently: results already given
{"target gene":"CILK1","viability robust z-score, siRNA alone":0.472,"viability vs control, siRNA alone":1,"synergy score with BYL719":0.215,"synergy score with cetuximab":0.0925,"synergy score with trametinib":-0.0667,"call":"inactive"}
{"target gene":"RIOK1","viability robust z-score, siRNA alone":0.472,"viability vs control, siRNA alone":1,"synergy score with BYL719":-0.00875,"synergy score with cetuximab":-0.0115,"synergy score with trametinib":-0.0667,"call":"inactive"}

More records follow.
viability robust z-score, siRNA alone | viability vs control, siRNA alone | synergy score with BYL719 | synergy score with cetuximab | synergy score with trametinib | call | target gene
-1.27 | 0.89 | -0.0502 | -0.12 | -0.169 | inactive | SCYL3
0.472 | 1 | -0.142 | -0.0115 | -0.0667 | inactive | CHEK2
-2.28 | 0.826 | -0.24 | 0.02 | -0.156 | inactive | CDC7
0.472 | 1 | -0.131 | 0.29 | -0.0616 | inactive | POLR2B
0.472 | 1 | 0.205 | 0.173 | -0.0667 | inactive | BRDT
0.472 | 1 | 0.05 | -0.0115 | -0.036 | inactive | NME4
0.438 | 0.998 | 0.0347 | -0.0136 | -0.0687 | inactive | KALRN
0.472 | 1 | -0.00476 | -0.0115 | -0.0667 | inactive | MAST4
0.472 | 1 | -0.142 | -0.0115 | -0.0667 | inactive | BMX
0.472 | 1 | -0.142 | -0.0115 | -0.0667 | inactive | ERBB2
0.472 | 1 | 0.0614 | -0.0115 | -0.0667 | inactive | ACVRL1
0.472 | 1 | 0.00158 | 0.17 | -0.0667 | inactive | WHR1
0.472 | 1 | 0.0552 | 0.00015 | -0.0667 | inactive | CHKA
-1.34 | 0.886 | -0.0655 | 0.178 | -0.104 | inactive | WNK3
0.472 | 1 | 0.00863 | -0.0115 | -0.0667 | inactive | AK3
0.472 | 1 | -0.142 | -0.0115 | -0.0667 | inactive | CDK11B
0.472 | 1 | 0.151 | 0.0655 | 0.0834 | inactive | NEK1
-0.623 | 0.931 | -0.108 | -0.0797 | 0.0128 | inactive | ROR2
0.472 | 1 | 0.00407 | -0.0115 | 0.0405 | inactive | TNK1
0.472 | 1 | -0.0345 | 0.174 | 0.224 | inactive | STK38
0.472 | 1 | -0.142 | -0.0115 | -0.0667 | inactive | CDKN2B
-4.75 | 0.671 | -0.123 | -0.213 | -0.0548 | active | CLSPN
